Assay results taken from article PMC5882171.
Results are given in words; binding and its absence hold for the method and conditions named. Some binding calls cover weakened binding; strength is not graded here. Tags and fused reporters may be left off the sequences shown.

Amino acid sequences for entries named in this document (tags omitted).
UniProt P35189: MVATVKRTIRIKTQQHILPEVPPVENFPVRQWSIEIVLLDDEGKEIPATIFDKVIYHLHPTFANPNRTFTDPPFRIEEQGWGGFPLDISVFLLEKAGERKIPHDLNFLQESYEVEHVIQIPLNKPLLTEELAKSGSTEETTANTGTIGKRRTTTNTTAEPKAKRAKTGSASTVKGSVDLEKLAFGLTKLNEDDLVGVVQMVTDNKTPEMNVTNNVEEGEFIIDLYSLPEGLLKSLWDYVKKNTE

Assays:
[1] = molecular target: T1, Tfg1 with C-terminal FLAG and TAP tags (yeast TFIIF subunit) (yeast) (UniProt P41895); assay: affinity co-purification (IgG resin) with SDS-PAGE; subunits co-expressed from a single baculovirus in Hi5 or Sf9 cells; lysate loaded on IgG resin, washed with high salt (1 M KCl) and low salt buffer, recovered by TEV protease digestion for 1 hour at room temperature; purified complex on SDS-PAGE
T1 sequence: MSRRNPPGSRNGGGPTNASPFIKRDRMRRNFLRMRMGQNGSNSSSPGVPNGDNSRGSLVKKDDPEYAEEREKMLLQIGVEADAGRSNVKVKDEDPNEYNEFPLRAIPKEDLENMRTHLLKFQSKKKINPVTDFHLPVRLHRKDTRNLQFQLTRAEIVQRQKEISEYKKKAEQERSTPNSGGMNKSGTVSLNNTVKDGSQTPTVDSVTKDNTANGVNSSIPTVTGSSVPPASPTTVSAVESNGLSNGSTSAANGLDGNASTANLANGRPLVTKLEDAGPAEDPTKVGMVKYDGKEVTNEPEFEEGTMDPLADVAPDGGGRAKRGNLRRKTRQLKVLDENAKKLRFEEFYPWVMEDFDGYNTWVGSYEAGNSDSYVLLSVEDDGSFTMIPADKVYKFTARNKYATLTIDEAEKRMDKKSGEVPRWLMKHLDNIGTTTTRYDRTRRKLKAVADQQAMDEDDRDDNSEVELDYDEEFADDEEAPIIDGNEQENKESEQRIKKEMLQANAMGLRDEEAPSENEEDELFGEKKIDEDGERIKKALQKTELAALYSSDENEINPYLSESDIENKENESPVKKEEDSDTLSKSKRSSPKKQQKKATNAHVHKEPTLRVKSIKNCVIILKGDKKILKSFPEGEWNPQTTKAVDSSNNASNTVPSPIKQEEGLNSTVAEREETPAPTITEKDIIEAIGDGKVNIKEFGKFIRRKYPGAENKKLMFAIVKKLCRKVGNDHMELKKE

[2] = molecular target: T2, Tfb1-10xHis tagged (yeast core TFIIH subunit) (yeast), P32776; assay: affinity co-purification (Ni-NTA) with SDS-PAGE; subunits co-expressed from a single baculovirus in Hi5 or Sf9 cells; lysate in 50 mM Hepes-KOH pH 7.6, 400 mM KCl loaded on Ni-NTA, washed with 1 M KCl and with 100 mM potassium acetate buffer, eluted with 300 mM imidazole; purified complex on SDS-PAGE (purified Head module also blotted with anti-His, anti-Med18 and anti-Med11 as a standard); settings: remark: other sources report otherwise
T2 chain: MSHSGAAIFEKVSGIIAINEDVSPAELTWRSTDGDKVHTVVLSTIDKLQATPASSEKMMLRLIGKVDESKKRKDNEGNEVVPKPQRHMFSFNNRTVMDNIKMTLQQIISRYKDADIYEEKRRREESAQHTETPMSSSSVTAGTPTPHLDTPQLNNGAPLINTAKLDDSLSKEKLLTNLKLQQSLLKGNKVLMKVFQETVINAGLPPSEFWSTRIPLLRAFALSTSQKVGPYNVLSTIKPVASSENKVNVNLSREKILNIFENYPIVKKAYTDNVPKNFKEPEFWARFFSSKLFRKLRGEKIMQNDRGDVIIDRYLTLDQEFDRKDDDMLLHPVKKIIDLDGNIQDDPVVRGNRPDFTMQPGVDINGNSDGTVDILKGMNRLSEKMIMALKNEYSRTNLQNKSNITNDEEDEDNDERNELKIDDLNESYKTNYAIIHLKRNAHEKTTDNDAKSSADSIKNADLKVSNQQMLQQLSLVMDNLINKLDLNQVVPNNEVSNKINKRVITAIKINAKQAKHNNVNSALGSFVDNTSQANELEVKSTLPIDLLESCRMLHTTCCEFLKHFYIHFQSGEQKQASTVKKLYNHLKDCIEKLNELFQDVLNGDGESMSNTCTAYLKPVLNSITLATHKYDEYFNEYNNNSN

[3] = molecular target: T3, Tfb1-10xHis tagged (yeast core TFIIH subunit) (yeast) (UniProt P32776); assay: as above
T3 sequence: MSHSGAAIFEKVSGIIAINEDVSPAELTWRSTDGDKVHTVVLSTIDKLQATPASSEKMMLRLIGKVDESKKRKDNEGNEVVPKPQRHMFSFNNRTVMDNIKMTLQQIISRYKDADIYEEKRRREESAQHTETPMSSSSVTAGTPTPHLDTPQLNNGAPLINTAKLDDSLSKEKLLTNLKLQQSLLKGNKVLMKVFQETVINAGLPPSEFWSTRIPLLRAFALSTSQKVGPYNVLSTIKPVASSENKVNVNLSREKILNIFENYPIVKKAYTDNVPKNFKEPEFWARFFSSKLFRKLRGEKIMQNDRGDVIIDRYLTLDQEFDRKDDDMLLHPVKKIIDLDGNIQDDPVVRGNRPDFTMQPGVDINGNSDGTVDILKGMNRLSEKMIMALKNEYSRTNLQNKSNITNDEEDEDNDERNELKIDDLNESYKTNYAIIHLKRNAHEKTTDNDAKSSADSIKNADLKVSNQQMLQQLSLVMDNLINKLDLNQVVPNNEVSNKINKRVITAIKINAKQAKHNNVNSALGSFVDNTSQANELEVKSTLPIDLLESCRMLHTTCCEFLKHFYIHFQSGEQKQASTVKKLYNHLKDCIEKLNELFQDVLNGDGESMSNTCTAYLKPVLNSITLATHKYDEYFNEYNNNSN

[4] = molecular target: T4, yeast Cycline C with C-terminal 10xhistidine tag (yeast) (UniProt P47821); assay: as above
T4 sequence: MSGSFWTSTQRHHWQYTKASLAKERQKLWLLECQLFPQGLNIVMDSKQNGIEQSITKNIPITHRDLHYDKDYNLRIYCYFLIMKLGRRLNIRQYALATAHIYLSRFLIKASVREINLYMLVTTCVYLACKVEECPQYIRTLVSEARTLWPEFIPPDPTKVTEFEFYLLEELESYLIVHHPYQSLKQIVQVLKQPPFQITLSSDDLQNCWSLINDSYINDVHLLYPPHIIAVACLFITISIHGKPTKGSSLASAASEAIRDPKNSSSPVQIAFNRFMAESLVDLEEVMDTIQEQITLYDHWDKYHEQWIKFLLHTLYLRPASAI

“Tfg3 (yeast TFIIF subunit) (from UniProt P35189 1-244)” was tested, and the binding [1] was “binds”.

B1: Tfg2 (yeast TFIIF subunit) (protein, UniProt P41896 1-400)
chain: MSSGSAGAPALSNNSTNSVAKEKSGNISGDEYLSQEEEVFDGNDIENNETKVYEESLDLDLERSNRQVWLVRLPMFLAEKWRDRNNLHGQELGKIRINKDGSKITLLLNENDNDSIPHEYDLELTKKVVENEYVFTEQNLKKYQQRKKELEADPEKQRQAYLKKQEREEELKKKQQQQKRRNNRKKFNHRVMTDRDGRDRYIPYVKTIPKKTAIVGTVCHECQVMPSMNDPNYHKIVEQRRNIVKLNNKERITTLDETVGVTMSHTGMSMRSDNSNFLKVGREKAKSNIKSIRMPKKEILDYLFKLFDEYDYWSLKGLKERTRQPEAHLKECLDKVATLVKKGPYAFKYTLRPEYKKLKEEERKATLGELADEQTGSAGDNAQGDAEADLEDEIEMEDVV
B1 was tested, and the binding [1] was “binds”.

B2: Tfb5 (yeast core TFIIH subunit), Q3E7C1 1-72 (protein)
chain: MARARKGALVQCDPSIKALILQIDAKMSDIVLEELDDTHLLVNPSKVEFVKHELNRLLSKNIYNPMDEEENQ
For B2, the binding [2] was “binds”.

B3: Rad3 (yeast core TFIIH subunit) (protein, UniProt P06839 1-778)
chain: MKFYIDDLPVLFPYPKIYPEQYNYMCDIKKTLDVGGNSILEMPSGTGKTVSLLSLTIAYQMHYPEHRKIIYCSRTMSEIEKALVELENLMDYRTKELGYQEDFRGLGLTSRKNLCLHPEVSKERKGTVVDEKCRRMTNGQAKRKLEEDPEANVELCEYHENLYNIEVEDYLPKGVFSFEKLLKYCEEKTLCPYFIVRRMISLCNIIIYSYHYLLDPKIAERVSNEVSKDSIVIFDEAHNIDNVCIESLSLDLTTDALRRATRGANALDERISEVRKVDSQKLQDEYEKLVQGLHSADILTDQEEPFVETPVLPQDLLTEAIPGNIRRAEHFVSFLKRLIEYLKTRMKVLHVISETPKSFLQHLKQLTFIERKPLRFCSERLSLLVRTLEVTEVEDFTALKDIATFATLISTYEEGFLLIIEPYEIENAAVPNPIMRFTCLDASIAIKPVFERFSSVIITSGTISPLDMYPRMLNFKTVLQKSYAMTLAKKSFLPMIITKGSDQVAISSRFEIRNDPSIVRNYGSMLVEFAKITPDGMVVFFPSYLYMESIVSMWQTMGILDEVWKHKLILVETPDAQETSLALETYRKACSNGRGAILLSVARGKVSEGIDFDHQYGRTVLMIGIPFQYTESRILKARLEFMRENYRIRENDFLSFDAMRHAAQCLGRVLRGKDDYGVMVLADRRFSRKRSQLPKWIAQGLSDADLNLSTDMAISNTKQFLRTMAQPTDPKDQEGVSVWSYEDLIKHQNSRKDQGGFIENENKEGEQDEDEDEDIEMQ
B3 was tested, and the binding [3] was “binds”.

B4: Tfb2 (yeast core TFIIH subunit) (protein, UniProt Q02939 1-513)
chain: MSDYSLKHSVTQYLEEIPQQVQNRLYTSPATCLAIYRILPPLAKFFIMAMVFNENEVPLLDLDKWVNSNGKLQFQNAIKSMKSLHLLIPNKSSGTLMINLNPTFKISLRNALTGGEVQNSFGVVVEENVVSLDLLDEYSANKWETILHFMVGTPLAKIPSEKVLNLLKHSKLMEEVNSTGEFKITNEGFQFLLQEINSQLWTLLLQYLKMIETSKMDLVDVLHFIFMLGALEVGKAYKIDALSETQRIMLQDMRDYGLVFQKHSNDSIFYPTKLALMLTSDTKTIRSASNAMDSVLRQNREEPSVNEDGANGKSTTDITTSDDLNKAGLKNQDIPDGSLIVETNFKIYSYSNSPLQIAVLSLFVHLKARFVNMVLGQITRESIRRALTNGITADQIIAYLETHAHPQMRRLAEEKLEKKLELDPNCKEPLQVLPPTVVDQIRLWQLELDRVITYEGSLYSDFETSQEYNLLSKYAQDIGVLLWKDDKKKKFFISKEGNSQVLDFAKRKLKKKQ
B4 was tested, and the binding [3] was “binds”.

B5: Ssl1 (yeast core TFIIH subunit) (protein, UniProt Q04673 1-461)
chain: MAPVVISESEEDEDRVAITRRTKRQVHFDGEGDDRVDQQQQQHSSSHRDRDKHVQRKKKKRLSNRNLQGSNGGYAWEDEIKRSWDLVKVDDEGDMASLVASIVEARKKRTAKKNITPYQRGIIRSLILTLDCSEAMLEKDLRPNRHAMIIQYAIDFVHEFFDQNPISQMGIIIMRNGLAQLVSQVSGNPQDHIDALKSIRKQEPKGNPSLQNALEMARGLLLPVPAHCTREVLIVFGSLSTTDPGDIHQTIDSLVSEKIRVKVLGLSAQVAICKELCKATNYGDESFYKILLDETHLKELFNEAVTPLPVNKINKGFTLVKMGFPTRIFEDTPTFCSCHSKLVYGGYFCPNCHSKVCSLPTVCPCCDLMLILSTHLARSYHHLMPLKTFAEVPTTEKFRSEDCFSCQSRFPILKNHKNGKLLTSSRYRCEDCKQEFCVDCDVFIHEILHNCPGCESKPVIT
For B5, the binding [3] was “binds”.

B6: Tfb4 (yeast core TFIIH subunit) (protein, UniProt Q12004 1-338)
chain: MDAISDPTFKHARSRKQVTEESPSLLTVIIEIAPKLWTTFDEEGNEKGSIIKVLEALIVFLNAHLAFNSANKVAVIAAYSQGIKYLYPESTSALKASESENKTRSDLKIINSDMYRRFRNVDETLVEEIYKLFELEKKQIEQNSQRSTLAGAMSAGLTYVNRISKESVTTSLKSRLLVLTCGSGSSKDEIFQYIPIMNCIFSATKMKCPIDVVKIGGSKESTFLQQTTDATNGVYLHVESTEGLIQYLATAMFIDPSLRPIIVKPNHGSVDFRTSCYLTGRVVAVGFICSVCLCVLSIIPPGNKCPACDSQFDEHVIAKLKRKPVVPRLKAKKKVTKP
In the case of B6, the binding [3] is reported as “binds”.

B7: yeast CDK8 (protein, UniProt P39073 1-555)
chain: MYNGKDRAQNSYQPMYQRPMQVQGQQQAQSFVGKKNTIGSVHGKAPMLMANNDVFTIGPYRARKDRMRVSVLEKYEVIGYIAAGTYGKVYKAKRQINSGTNSANGSSLNGTNAKIPQFDSTQPKSSSSMDMQANTNALRRNLLKDEGVTPGRIRTTREDVSPHYNSQKQTLIKKPLTVFYAIKKFKTEKDGVEQLHYTGISQSACREMALCRELHNKHLTTLVEIFLERKCVHMVYEYAEHDLLQIIHFHSHPEKRMIPPRMVRSIMWQLLDGVSYLHQNWVLHRDLKPANIMVTIDGCVKIGDLGLARKFHNMLQTLYTGDKVVVTIWYRAPELLLGARHYTPAVDLWSVGCIFAELIGLQPIFKGEEAKLDSKKTVPFQVNQLQRILEVLGTPDQKIWPYLEKYPEYDQITKFPKYRDNLATWYHSAGGRDKHALSLLYHLLNYDPIKRIDAFNALEHKYFTESDIPVSENVFEGLTYKYPARRIHTNDNDIMNLGSRTKNNTQASGITAGAAANALGGLGVNRRILAAAAAAAAAVSGNNASDEPSRKKNRR
In the case of B7, the binding [4] is reported as “binds”.
